The target in experiment [1] is RyR2 N-terminal fragment (RyR2 residues 1 - 906), GAL4 fusions for yeast two-hybrid (human) (UniProt Q92736). Description: two-hybrid; GAL4 system in yeast; colony-lift filter paper β-Gal assay (X-Gal), 30 °C; bait: GAL4 DNA-BD fusions, prey: AD4L.
Experiment [2] shares this target. Description: two-hybrid; GAL4 system in yeast; quantitative liquid culture β-Gal assay (ONPG), 30 °C; normalized against the positive control pVA3 + pTD1.
Experiment [3] addresses RyR2 N-terminus domain (residues 1 - 906), cMyc-tagged (BT4L) or HA-tagged (AD4L), expressed in HEK293 (human) (UniProt Q92736). Description: co-IP; HA-tagged AD4L immunoprecipitated with Ab^HA and Protein-A sepharose from CHAPS-solubilized, dithiothreitol-treated lysate of co-transfected HEK293 cells; blot with Ab^cMyc; non-immune rabbit IgG as negative control.

No constants are given. Whether binding was seen depends on the method and setting. For part of these data: Binding seen in cells or lysates may run through a third protein. Some entries that bind do so weakly or less than the wild type.

This is an account of results in PMC5065051, “Genetic and Biochemical Approaches for In Vivo and In Vitro Assessment of Protein Oligomerization: The Ryanodine Receptor Case Study” (Journal of Visualized Experiments : JoVE, 2016).

Consider “RyR2 N-terminal fragment (RyR2 residues 1 - 906), GAL4 fusions for yeast two-hybrid (from UniProt Q92736 1-906) (domain or fragment)”, for which the binding result in experiment [1] and in experiment [2] was “binds” in each case.

B1: RyR2 N-terminus domain (residues 1 - 906), cMyc-tagged (BT4L) or HA-tagged (AD4L), expressed in HEK293 (domain or fragment, human, UniProt Q92736 1-906, looked up)
chain: MADGGEGEDEIQFLRTDDEVVLQCTATIHKEQQKLCLAAEGFGNRLCFLESTSNSKNVPPDLSICTFVLEQSLSVRALQEMLANTVEKSEGQVDVEKWKFMMKTAQGGGHRTLLYGHAILLRHSYSGMYLCCLSTSRSSTDKLAFDVGLQEDTTGEACWWTIHPASKQRSEGEKVRVGDDLILVSVSSERYLHLSYGNGSLHVDAAFQQTLWSVAPISSGSEAAQGYLIGGDVLRLLHGHMDECLTVPSGEHGEEQRRTVHYEGGAVSVHARSLWRLETLRVAWSGSHIRWGQPFRLRHVTTGKYLSLMEDKNLLLMDKEKADVKSTAFTFRSSKEKLDVGVRKEVDGMGTSEIKYGDSVCYIQHVDTGLWLTYQSVDVKSVRMGSIQRKAIMHHEGHMDDGISLSRSQHEESRTARVIRSTVFLFNRFIRGLDALSKKAKASTVDLPIESVSLSLQDLIGYFHPPDEHLEHEDKQNRLRALKNRQNLFQEEGMINLVLECIDRLHVYSSAAHFADVAGREAGESWKSILNSLYELLAALIRGNRKNCAQFSGSLDWLISRLERLEASSGILEVLHCVLVESPEALNIIKEGHIKSIISLLDKHGRNHKVLDVLCSLCVCHGVAVRSNQHLICDNLLPGRDLLLQTRLVNHVSSMRPNIFLGVSEGSAQYKKWYYELMVDHTEPFVTAEATHLRVGWASTEGYSPYPGGGEEWGGNGVGDDLFSYGFDGLHLWSGCIARTVSSPNQHLLRTDDVISCCLDLSAPSISFRINGQPVQGMFENFNIDGLFFPVVSFSAGIKVRFLLGGRHGEFKFLPPPGYAPCYEAVLPKEKLKVEHSREYKQERTYTRDLLGPTVSLTQAAFTPIPVDTSQIVLPPHLERIREKLAENIHELWVMNKIELGWQYGP
notes: ryanodine receptor 2 (RyR2), human, residues 1-906; Two copies of the same stretch, each with ONE tag: in the co-IP cMyc-BT4L and HA-AD4L were co-expressed; in the cross-linking cMyc-BT4L was expressed alone; also called cMyc-BT4L; source: HEK293, transiently transfected (calcium phosphate), in lysate or homogenate
Take B1: the binding result in experiment [3] is “binds”.
